A: 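Coenzyme A biosynthesis protein CoaBC, Mycobacterium tuberculosis (UniProt P9WNZ1). Enzyme assay of CoaBC with a phosphate dye (Biomol Green) read at 650 nm. Tested at 30 µM. Higher reads as stronger inhibition, judged from the few compounds that gave an IC50. Most strong results did not repeat in a second test. About 67,000 compounds were tested under these conditions; 0.06% (about 40) showed 50% or more at least once.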
B: 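Tryptophan-tRNA ligase, Mycobacterium tuberculosis (UniProt P9WFT3). Enzyme assay of tryptophanyl-tRNA synthetase; the read-out is not stated. Concentration: 10 µM. Direction is not recorded; retested compounds ran higher, which suggests that high means inhibition. Of about 65,000 compounds tested this way, about 64 (0.098%) reached 50% or more in at least one test.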
C: 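Enzyme assay of histidyl-tRNA synthetase; the read-out is not stated. Target: Histidine-tRNA ligase, Trypanosoma cruzi CL Brener (UniProt Q4DA54). Tested at 30 µM. The record gives no direction; compounds that gave an IC50 in retests scored well above the rest, so higher reads as stronger inhibition. Size under these conditions: about 69,000 compounds, about 31 of them at 50% or above in at least one test.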
D: 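Lysine-tRNA ligase, Plasmodium falciparum 3D7 (UniProt Q8IDJ8). Enzyme assay of the cytosolic lysyl-tRNA synthetase in 384-well plates, read by luminescence. Compounds at 30 µM. Higher reads as stronger inhibition, judged from the few compounds that gave an IC50. Of about 69,000 compounds tested this way, about 49 (0.071%) reached 50% or more in at least one test.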

Sequences of proteins named here, by UniProt entry; tags and fusion partners are left off. Residues count along the entry.
UniProt P9WNZ1, whole entry: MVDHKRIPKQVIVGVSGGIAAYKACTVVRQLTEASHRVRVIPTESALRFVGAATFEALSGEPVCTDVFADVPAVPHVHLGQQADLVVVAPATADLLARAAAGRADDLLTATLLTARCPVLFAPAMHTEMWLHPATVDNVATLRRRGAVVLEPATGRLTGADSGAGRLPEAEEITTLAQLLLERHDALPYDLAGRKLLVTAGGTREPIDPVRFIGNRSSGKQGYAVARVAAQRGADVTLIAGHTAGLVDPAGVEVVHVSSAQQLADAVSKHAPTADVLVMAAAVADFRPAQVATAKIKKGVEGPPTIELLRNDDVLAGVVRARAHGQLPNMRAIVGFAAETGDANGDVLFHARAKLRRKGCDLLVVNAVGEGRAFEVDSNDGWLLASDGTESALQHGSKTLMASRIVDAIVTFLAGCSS
UniProt P9WFT3, whole entry: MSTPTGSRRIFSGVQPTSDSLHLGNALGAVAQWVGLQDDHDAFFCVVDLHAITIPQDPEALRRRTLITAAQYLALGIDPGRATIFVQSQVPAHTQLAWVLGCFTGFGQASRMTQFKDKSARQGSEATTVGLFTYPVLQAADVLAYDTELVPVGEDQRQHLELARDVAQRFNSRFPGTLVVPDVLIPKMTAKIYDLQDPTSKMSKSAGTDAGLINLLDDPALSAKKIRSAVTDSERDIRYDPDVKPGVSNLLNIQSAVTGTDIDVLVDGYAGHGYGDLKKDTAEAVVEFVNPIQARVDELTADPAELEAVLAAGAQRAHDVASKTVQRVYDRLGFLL
UniProt Q4DA54, 1-478: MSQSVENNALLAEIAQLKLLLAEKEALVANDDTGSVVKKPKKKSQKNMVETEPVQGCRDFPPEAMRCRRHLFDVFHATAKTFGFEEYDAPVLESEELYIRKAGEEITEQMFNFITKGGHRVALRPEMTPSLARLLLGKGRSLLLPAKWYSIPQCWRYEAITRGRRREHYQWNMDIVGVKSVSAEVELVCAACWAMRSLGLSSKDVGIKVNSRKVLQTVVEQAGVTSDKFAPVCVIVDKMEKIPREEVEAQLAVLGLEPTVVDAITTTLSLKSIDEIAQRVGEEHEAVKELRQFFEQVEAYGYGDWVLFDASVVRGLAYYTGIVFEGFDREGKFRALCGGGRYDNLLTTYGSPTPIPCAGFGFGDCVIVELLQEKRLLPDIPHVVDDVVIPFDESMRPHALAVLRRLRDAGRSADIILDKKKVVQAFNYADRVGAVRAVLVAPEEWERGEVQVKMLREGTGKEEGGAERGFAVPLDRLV
UniProt Q8IDJ8, 1-583: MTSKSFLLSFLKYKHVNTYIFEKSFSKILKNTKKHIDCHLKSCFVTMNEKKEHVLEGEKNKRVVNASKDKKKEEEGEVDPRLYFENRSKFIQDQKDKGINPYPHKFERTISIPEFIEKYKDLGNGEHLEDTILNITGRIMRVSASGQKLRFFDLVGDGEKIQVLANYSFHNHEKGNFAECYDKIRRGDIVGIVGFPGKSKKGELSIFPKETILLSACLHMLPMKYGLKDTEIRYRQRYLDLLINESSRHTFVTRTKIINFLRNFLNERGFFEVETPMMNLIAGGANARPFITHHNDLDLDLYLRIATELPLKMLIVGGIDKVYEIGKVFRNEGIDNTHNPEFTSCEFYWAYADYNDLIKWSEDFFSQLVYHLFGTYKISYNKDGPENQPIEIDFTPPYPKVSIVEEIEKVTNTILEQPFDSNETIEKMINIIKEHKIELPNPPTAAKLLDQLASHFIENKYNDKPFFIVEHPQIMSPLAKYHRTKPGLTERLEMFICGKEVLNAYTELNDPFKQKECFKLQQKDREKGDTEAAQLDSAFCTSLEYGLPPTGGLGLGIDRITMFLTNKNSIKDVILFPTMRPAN

Values are the deposited “Percent Effect”, in %. The record does not define 0% and 100%; most values in the screen are far below 50% and negative numbers occur (in some assays of this library far below -100). The compounds are a random part of those screened. A dash means the value is not listed here; it may have been measured.

| compound | A | B | C | D |
|---|---|---|---|---|
| `CNc1ccc(C(=O)N(C)Cc2ccc3ccccc3n2)cn1` | 3.422 | -2.21 | 3.017 | 3.043 |
| `CC(=O)N1CCC(c2nccnc2-c2ccc(F)c(F)c2)CC1` | -1.716 | - | 9.574 | 3.49 |
| `CC1CCCCN1CCNC(=O)NCc1ccc(C#N)cc1F` (stereo unspecified) | 4.545 | -2.564 | -1.734 | -0.9396 |
| `Cc1ccccc1OCCCC(=O)NCC1CN(C)CCO1` (stereo unspecified) | -2.895 | -2.807 | 3.812 | 0.2075 |
| `Cc1csc(CN2CCC[C@]3(C[C@H](OCC4CC4)CO3)C2)n1` | -0.1616 | 3.121 | 6.03 | 1.801 |
| `COc1ccc(CNC(c2cccc(F)c2)c2cnn(C)c2)cc1` (stereo unspecified) | 0.1626 | 0.3666 | 0.9804 | 1.138 |
| `CC(=O)N1CC(C(=O)NCCc2ncc(C)s2)C1` | -10.51 | -3.87 | 3.03 | 0.3699 |
| `Cc1nc(CNc2cccc(Cl)c2Cl)cs1` | 5.058 | 11.78 | 5 | -3.623 |
| `Cc1ccccc1C(=O)N1CC[C@@H](N2CCC(O)CC2)[C@H](O)C1` | 2.564 | -4.211 | 1.622 | -3.225 |
| `CN(C)C(=O)N1CC(C(=O)NCC2CC2)C2(CCOCC2)C1` (stereo unspecified) | 0 | - | -2.21 | 1.259 |
| `CCc1cccc(N2CCC(NC(=O)C3CCCO3)CC2)c1` (stereo unspecified) | 5.725 | -8.69 | 5.07 | -1.433 |
| `Cc1cc(C(=O)NCC(O)c2c(Cl)cccc2Cl)nn1C` (stereo unspecified) | 2.177 | -0.7712 | -1.84 | -6.059 |
| `c1cncc(COC[C@H]2CC[C@H]3[C@H](CCN3Cc3cccs3)O2)c1` | -1.036 | -3.7 | 6.011 | -3.158 |
| `COCc1cccc(NC(C(N)=O)c2ccc(Br)cc2)c1` (stereo unspecified) | 5.742 | 1.262 | 2.941 | 1.529 |
| `COc1cc(CNCC(O)c2ccc(F)cc2F)cc2c1OCO2` (stereo unspecified) | 7.143 | 6.907 | 6.433 | 1.081 |
| `O=C(NCC1CC(=O)N(CCc2ccccc2)C1)c1c(F)cccc1F` (stereo unspecified) | 3.175 | -1.944 | 3.061 | 5.935 |
| `NS(=O)(=O)CCCC(=O)N1CCC2(CC1)c1ccccc1CC2O` (stereo unspecified) | 0.1206 | -3.406 | -3.518 | 4.694 |
| `N#Cc1c(Cl)nsc1NCc1ccc(N2CCCC(C(N)=O)C2)cc1` (stereo unspecified) | 9.091 | -5.353 | 2.703 | 1.976 |
| `COc1ccccc1OC1CN(C(=O)CN(C)Cc2ccncc2)C1` | -1.739 | 2.973 | 3.59 | -3.79 |
| `O=C(NCC1(c2ccc(F)cc2)CCCC1)N1CCOC(CO)C1` (stereo unspecified) | 4.018 | -3.818 | 3.867 | -3.641 |
| `CN(C)c1nc2c(c(N(C)Cc3n[nH]c4c3CCCC4)n1)CCNCC2` | -23.59 | 1.932 | 36 | -0.0116 |
| `CC(C)OCCN(C)C(C)c1cccc(S(N)(=O)=O)c1` (stereo unspecified) | 3.162 | 0.07337 | 2.662 | -8.159 |
| `Cc1nc[nH]c1-c1nccn1-c1ccc(C(N)=O)c(N2CCCC2)c1` | 0 | -0.4955 | 2.564 | -0.5997 |
| `Cc1ccc(CN2CC[C@H]3OCC[C@@]3(COCC(=O)N(C)C)C2)s1` | 2.956 | 3.352 | 7.216 | 3.113 |
| `CC(C)(C)N1CC(C(=O)N2CCN(CCn3cccc3)CC2)CC1=O` (stereo unspecified) | 6.25 | 0.3552 | 1.245 | 0.8231 |
| `Cc1nc(N2CCN(C)CC2)ncc1C(=O)N1CCC(O)(CO)CC1` | -13.66 | -0.3353 | 5.085 | 6.102 |
| `CC(C)c1n[nH]c(C2CN(C(=O)C3=COCC3)CCO2)n1` (stereo unspecified) | 1.836 | -1.267 | 3.788 | -2.992 |
| `NC(=O)Nc1cccc(Oc2ccccn2)c1` | 3.914 | -3.072 | 2.174 | 4.748 |
| `Cc1cc(N2CCc3c(ncn3C3CC3)C2)nc(N)n1` | 7.158 | -5.436 | 3.191 | 0.1548 |
| `CN(Cc1ccoc1)C(=O)Cn1ncc(N(C)C)cc1=O` | 8.442 | 2.738 | -2.4 | -3.956 |
| `NC(=O)NC(=O)CCN1CCC(C(=O)c2cc(F)ccc2F)CC1` | 2.927 | 0.1505 | 1.961 | 7.271 |
| `Cc1nc(CNCC2CCCN2c2cccnn2)cs1` (stereo unspecified) | 1.33 | -1.415 | 4.183 | -1.104 |
| `O=C(N[C@H]1CN[C@H]2CCCO[C@H]21)c1cccnc1` | 3.656 | -1.234 | -1.653 | 2.527 |
| `CNC(=O)C1CCCN(C(=O)c2ccccc2-n2cc(CN)cn2)C1` (stereo unspecified) | 5.701 | -5.774 | 8.462 | 2.121 |
| `CC(=O)N1Cc2ccccc2C[C@H]1C(=O)N(C)CCc1ccccn1` | 11.88 | 2.006 | 12.05 | 2.763 |
| `O=C(Nc1cc(C(F)(F)F)c[nH]c1=O)C1CCCNC1` (stereo unspecified) | -2.066 | 3.859 | 9.901 | -3.577 |
| `CC(CCNC(=O)NCCc1ccncc1)c1ccccc1` (stereo unspecified) | -0.8547 | -6.781 | 1.622 | -1.571 |
| `CC[C@H](C)[C@H](NC(=O)c1ccccc1-n1cnnn1)C(=O)OC` | -5.518 | -1.407 | 3.825 | -5.096 |
| `CC(C)(C)CN[C@@H]1CO[C@H](CNC(=O)Nc2ccccc2)[C@H]1O` | 15.23 | -2.049 | 4.348 | 1.74 |
| `Cc1cccc(C(=O)N2C[C@@H](OCc3cccnc3)[C@H]3OCCC[C@@H]32)n1` | 1.673 | 2.397 | 3.825 | 0.4749 |
| `Cc1nn(C)cc1CN1CCCC(n2c(=O)oc3ccccc32)C1` (stereo unspecified) | -0.7884 | -1.244 | 4.545 | 1.636 |
| `Cn1cc(C2CC(=O)NC23CCN(C(=O)c2ccc[nH]2)CC3)cn1` (stereo unspecified) | 7.582 | -3.66 | 5.747 | 4.72 |
| `O=C(CCc1cc2n(n1)CCCNC2)N1CCC(N2CCOC2=O)CC1` | 4.303 | -2.347 | 7.447 | 6.597 |
| `O=C(c1cnccn1)N1CCOC2(CCN(Cc3ccsc3)CC2)C1` | 2.919 | 4.512 | 3.784 | 3.37 |
| `COc1cccc(OCCNCc2ccccc2)c1` | -5.785 | 5.433 | 6 | 1.556 |
| `COc1cn(CC(=O)N2CCN(c3ccc(Cl)cc3)CC2)c(C)cc1=O` | 5.696 | 0.5424 | -2.484 | 2.903 |
| `Cc1ccnc(NS(=O)(=O)c2cc(C(N)=O)n(C)c2)c1` | 0.1212 | 0.8081 | 2.041 | 6.597 |
| `Cc1ccc2c(n1)N(Cc1cccnc1)CCN(C1CCOCC1)C2` | -5.071 | -2.827 | 9.244 | 3.905 |

Some entries from above, unchanged:

* Cc1nc(N2CCN(C)CC2)ncc1C(=O)N1CCC(O)(CO)CC1 | A: -13.66%; B: -0.3353%; C: 5.085%; D: 6.102%
* CCc1cccc(N2CCC(NC(=O)C3CCCO3)CC2)c1 (stereo unspecified) | A: 5.725%; B: -8.69%; C: 5.07%; D: -1.433%
* CNC(=O)C1CCCN(C(=O)c2ccccc2-n2cc(CN)cn2)C1 (stereo unspecified) | A: 5.701%; B: -5.774%; C: 8.462%; D: 2.121%
* COc1cccc(OCCNCc2ccccc2)c1 | A: -5.785%; B: 5.433%; C: 6%; D: 1.556%

Data taken from ChEMBL document CHEMBL3988442, “University of Dundee, Small-Polar-MMV Screening Library” (2021).